Here are results for 37 targets from the supplement of paper PMC10849652.

The chains behind the UniProt entries cited, without tags or fusion partners. Where a name states a change or a piece, a line headed by the entry shows the natural chain unless it says otherwise.
UniProt Q96BQ5: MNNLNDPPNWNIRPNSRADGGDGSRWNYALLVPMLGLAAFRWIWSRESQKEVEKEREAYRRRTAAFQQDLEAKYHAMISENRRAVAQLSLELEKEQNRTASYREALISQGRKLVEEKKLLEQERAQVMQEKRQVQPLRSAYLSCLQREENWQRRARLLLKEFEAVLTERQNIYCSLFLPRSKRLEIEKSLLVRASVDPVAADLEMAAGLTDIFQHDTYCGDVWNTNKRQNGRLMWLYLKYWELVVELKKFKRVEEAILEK
UniProt Q6YHK3: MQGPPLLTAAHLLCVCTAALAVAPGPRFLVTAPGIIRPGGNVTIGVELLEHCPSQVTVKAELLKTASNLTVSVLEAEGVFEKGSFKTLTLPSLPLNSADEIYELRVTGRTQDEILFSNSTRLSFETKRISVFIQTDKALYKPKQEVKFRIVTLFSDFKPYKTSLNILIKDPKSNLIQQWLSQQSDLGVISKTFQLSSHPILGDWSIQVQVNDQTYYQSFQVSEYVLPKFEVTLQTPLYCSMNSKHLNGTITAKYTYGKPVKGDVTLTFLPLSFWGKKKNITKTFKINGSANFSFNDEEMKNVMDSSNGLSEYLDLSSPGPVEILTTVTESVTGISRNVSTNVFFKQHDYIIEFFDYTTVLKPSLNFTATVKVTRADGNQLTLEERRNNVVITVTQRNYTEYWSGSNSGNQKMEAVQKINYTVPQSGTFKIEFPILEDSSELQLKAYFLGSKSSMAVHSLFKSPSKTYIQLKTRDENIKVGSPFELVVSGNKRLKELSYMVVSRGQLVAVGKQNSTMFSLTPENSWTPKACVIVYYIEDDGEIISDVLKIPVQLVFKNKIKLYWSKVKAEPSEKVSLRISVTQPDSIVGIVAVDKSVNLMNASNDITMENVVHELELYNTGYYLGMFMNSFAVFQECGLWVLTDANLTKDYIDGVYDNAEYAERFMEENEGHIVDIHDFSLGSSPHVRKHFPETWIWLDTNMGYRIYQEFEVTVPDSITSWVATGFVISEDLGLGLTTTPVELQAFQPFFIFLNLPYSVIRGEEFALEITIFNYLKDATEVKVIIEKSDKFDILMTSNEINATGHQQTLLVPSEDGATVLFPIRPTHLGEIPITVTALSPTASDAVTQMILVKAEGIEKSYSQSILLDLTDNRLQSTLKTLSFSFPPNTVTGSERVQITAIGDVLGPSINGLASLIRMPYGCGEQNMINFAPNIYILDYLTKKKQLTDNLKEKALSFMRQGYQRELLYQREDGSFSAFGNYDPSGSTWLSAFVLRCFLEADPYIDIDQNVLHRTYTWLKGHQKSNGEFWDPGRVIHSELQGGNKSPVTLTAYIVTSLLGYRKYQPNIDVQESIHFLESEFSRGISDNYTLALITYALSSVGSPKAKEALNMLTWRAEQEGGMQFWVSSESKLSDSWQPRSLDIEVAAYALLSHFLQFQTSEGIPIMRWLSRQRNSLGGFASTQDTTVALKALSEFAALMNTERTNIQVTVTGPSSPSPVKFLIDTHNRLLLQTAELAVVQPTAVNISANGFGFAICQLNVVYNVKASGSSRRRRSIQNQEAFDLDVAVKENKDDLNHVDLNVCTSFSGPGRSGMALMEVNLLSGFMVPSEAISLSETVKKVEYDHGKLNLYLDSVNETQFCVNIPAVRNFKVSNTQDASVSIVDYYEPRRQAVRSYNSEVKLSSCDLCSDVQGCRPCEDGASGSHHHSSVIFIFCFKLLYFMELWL
UniProt Q9NQ75: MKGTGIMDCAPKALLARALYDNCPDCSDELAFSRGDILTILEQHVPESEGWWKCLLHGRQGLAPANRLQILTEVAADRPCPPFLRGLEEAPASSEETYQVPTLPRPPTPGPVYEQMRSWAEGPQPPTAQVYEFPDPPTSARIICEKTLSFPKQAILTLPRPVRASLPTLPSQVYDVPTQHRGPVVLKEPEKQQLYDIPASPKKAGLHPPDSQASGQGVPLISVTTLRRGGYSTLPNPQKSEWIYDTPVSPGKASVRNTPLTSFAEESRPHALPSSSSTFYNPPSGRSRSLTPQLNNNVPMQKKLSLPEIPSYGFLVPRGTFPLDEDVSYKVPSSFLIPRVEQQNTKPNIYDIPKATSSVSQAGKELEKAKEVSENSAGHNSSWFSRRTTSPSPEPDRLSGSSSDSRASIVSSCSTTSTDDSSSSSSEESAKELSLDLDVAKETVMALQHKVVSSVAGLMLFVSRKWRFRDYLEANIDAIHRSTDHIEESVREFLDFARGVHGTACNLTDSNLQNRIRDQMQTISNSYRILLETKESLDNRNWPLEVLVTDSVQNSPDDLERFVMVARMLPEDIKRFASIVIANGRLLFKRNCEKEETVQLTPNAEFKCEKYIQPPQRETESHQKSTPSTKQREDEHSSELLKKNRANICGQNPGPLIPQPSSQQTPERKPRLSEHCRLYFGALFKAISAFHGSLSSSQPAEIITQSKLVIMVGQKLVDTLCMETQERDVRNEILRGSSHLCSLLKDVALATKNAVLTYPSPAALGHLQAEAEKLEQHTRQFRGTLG
UniProt O95273: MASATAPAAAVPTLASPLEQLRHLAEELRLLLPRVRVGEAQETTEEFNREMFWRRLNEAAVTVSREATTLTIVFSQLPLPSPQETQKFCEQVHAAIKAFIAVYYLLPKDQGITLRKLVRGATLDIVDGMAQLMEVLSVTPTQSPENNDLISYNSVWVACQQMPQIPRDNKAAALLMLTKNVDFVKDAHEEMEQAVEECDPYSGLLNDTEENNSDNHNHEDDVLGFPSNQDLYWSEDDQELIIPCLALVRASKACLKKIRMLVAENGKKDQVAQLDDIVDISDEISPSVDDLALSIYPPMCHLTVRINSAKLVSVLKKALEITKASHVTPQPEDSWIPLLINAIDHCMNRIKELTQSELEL
UniProt Q9BX69: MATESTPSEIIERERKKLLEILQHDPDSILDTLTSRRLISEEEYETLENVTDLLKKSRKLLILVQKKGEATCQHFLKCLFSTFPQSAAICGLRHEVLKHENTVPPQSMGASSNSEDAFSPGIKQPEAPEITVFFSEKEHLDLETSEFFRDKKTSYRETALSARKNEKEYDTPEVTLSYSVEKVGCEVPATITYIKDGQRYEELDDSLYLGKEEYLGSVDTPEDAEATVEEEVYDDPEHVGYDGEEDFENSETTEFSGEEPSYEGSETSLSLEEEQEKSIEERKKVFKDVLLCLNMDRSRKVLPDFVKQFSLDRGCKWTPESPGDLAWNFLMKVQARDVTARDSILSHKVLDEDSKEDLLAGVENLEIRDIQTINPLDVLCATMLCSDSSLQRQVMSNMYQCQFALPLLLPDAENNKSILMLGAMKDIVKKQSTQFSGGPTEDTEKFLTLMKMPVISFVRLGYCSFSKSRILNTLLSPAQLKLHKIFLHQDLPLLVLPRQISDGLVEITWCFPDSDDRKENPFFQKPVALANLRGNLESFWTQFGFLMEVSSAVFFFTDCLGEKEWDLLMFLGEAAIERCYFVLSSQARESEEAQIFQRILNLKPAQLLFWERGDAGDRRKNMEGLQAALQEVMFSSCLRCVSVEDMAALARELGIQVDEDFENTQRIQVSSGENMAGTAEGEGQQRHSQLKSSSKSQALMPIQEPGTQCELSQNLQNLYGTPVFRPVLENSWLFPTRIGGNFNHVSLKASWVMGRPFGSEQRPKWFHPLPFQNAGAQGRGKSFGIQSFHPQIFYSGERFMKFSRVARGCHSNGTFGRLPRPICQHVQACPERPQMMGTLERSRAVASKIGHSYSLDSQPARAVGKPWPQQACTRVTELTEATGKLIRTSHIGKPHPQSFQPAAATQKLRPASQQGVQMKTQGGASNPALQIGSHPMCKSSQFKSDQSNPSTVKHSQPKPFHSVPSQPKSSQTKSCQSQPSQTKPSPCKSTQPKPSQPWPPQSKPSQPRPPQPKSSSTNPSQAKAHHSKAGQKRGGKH
UniProt Q4G0S7: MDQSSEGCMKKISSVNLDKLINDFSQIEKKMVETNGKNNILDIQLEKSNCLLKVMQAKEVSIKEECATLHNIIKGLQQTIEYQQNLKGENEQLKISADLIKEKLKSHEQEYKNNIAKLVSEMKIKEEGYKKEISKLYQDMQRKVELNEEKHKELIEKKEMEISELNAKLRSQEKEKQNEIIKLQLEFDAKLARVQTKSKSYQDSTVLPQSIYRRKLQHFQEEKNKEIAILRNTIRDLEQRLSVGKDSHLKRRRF
UniProt Q9HC52: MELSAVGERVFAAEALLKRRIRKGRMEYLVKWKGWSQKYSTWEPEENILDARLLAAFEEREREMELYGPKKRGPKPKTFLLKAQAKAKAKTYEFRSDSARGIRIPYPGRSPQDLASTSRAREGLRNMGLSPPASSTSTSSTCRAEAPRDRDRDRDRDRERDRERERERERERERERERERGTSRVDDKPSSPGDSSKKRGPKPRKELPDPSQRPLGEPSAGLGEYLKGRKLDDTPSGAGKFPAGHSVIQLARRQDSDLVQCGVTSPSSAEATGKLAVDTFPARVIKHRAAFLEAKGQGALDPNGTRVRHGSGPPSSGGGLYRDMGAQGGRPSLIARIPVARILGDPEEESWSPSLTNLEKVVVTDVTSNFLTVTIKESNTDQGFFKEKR
UniProt P19397: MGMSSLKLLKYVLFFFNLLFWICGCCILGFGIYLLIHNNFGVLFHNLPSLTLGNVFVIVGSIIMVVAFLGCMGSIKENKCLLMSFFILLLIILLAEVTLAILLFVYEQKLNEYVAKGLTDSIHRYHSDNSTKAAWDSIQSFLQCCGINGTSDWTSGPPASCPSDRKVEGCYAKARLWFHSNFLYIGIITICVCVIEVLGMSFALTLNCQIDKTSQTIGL
UniProt Q8N9Z2: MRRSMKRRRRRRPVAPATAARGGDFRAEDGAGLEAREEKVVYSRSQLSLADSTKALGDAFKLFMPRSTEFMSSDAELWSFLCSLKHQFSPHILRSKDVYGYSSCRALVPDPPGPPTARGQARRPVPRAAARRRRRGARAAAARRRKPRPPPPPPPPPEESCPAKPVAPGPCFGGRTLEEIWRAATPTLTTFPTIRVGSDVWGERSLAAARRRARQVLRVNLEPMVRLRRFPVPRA
UniProt P24385, whole entry, looked up: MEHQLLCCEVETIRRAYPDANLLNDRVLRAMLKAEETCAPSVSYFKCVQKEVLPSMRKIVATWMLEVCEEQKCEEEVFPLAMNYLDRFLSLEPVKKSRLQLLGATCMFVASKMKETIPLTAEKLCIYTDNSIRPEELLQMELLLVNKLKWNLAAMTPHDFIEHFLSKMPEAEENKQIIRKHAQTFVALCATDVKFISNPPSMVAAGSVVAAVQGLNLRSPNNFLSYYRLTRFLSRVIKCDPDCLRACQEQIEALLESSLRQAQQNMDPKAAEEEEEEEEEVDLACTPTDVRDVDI
UniProt P51636: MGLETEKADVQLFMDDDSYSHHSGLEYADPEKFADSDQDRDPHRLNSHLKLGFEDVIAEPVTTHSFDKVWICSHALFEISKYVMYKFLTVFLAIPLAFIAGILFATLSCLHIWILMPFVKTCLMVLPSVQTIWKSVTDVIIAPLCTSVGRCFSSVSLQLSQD
UniProt P16070: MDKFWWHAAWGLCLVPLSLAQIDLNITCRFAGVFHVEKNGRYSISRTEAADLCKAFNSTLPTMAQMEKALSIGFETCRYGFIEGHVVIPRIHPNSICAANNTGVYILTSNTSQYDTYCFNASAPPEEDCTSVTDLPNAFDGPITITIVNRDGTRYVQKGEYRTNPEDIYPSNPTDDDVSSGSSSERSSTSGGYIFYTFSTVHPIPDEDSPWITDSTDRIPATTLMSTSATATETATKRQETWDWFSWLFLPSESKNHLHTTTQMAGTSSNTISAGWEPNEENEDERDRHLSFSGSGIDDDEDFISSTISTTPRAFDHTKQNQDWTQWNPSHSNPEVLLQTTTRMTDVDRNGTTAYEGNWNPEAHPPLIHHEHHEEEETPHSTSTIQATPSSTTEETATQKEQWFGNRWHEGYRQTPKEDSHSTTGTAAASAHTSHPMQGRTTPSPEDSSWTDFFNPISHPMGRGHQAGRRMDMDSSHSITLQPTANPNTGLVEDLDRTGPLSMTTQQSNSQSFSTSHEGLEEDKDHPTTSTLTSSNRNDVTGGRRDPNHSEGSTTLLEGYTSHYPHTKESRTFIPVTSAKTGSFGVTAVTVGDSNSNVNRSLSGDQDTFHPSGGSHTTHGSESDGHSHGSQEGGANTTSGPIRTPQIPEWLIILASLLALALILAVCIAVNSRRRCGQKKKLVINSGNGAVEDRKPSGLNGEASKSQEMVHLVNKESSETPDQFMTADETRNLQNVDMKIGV
UniProt P33681, whole entry, looked up: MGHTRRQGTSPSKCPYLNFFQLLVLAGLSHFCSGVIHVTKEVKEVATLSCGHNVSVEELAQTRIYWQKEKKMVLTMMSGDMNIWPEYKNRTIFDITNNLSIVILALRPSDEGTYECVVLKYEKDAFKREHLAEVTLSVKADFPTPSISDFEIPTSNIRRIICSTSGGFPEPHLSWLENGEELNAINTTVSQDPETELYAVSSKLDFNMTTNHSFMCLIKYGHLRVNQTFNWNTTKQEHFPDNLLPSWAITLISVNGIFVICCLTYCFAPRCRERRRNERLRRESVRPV

Test in all cases: log2 fold change, soluble protein after heating vs DMSO (PISA); higher = thermal stabilisation; K562 lysate, 10 uM; active = over 0.2 and 3.5 SD of the protein, either way, in both replicates (recomputed)
Compound in assay [1]: CC1=C2C(=CC=C1)N=C(N(C2=O)C3=CC=CC=C3C)CN4C=NC5=C(N=CN=C54)N
A digest of the protocol:
(§1)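 K562 pellets were dounce-homogenised in PBS pH 7.4 containing 1 mM MgCl2, and the crude extract, at 1 mg/mL protein, was exposed to 10 μM compound for 30 min. Aliquots were heated for 3 min across 48°C-58°C, pooled, brought to 0.5% NP-40 at 4°C and spun at 21,000xg for 90 min, with the supernatant taken as soluble protein. TMTpro 16plex LC-MS/MS with equalised channel sums quantified that protein. Values are log-two fold changes in thermal stability relative to solvent controls, taken from duplicates.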

Compound in assay [2]: Cc1sc2c(c1C)C(c1ccc(Cl)cc1)=N[C@@H](CC(=O)OC(C)(C)C)c1nnc(C)n1-2
In short, it runs like this: as §1

Compound in assay [3]: c1ccc([C@@H]2C[C@H]2NC2CCNCC2)cc1
A digest of the protocol:
as §1

Compound in assay [4]: C1=CC=C(C=C1)[C@H](COC2=CC3=C(C=C2)NC(=O)N3)NC(=O)C4=CC=CN(C4=O)CC5=CC(=C(C=C5)F)F
In short, it runs like this:
as §1

Compound in assay [5]: CC1=C(SC2=C1C(=N[C@H](C3=NN=C(N32)C)CC(=O)N)C4=CC=C(C=C4)Cl)C
A digest of the protocol: as §1

The other results are listed elsewhere or left out.

For CBFA2T2 isoform 4 (UniProt O43439), the figures for the log2 fold change in assay [1], in assay [2] and in assay [3] were inactive: -0.037, inactive: 0.148 and inactive: -0.043, respectively.
Regarding CCDC18 (UniProt Q5T9S5), the log2 fold change in assay [2] is inactive: -0.074; in assay [3] it was inactive: -0.277.
Take CCDC127 (UniProt Q96BQ5): the log2 fold change is inactive: -0.052 in assay [4], inactive: -0.053 in assay [5], inactive: 0.043 in assay [2] and inactive: -0.026 in assay [3].
For the target CD109 (UniProt Q6YHK3), the log2 fold change in assay [3] is inactive: -0.033.
CBFB (UniProt Q13951): the log2 fold change in assay [4] was inactive: 0.016; in assay [5], inactive: 0.02; in assay [2] it was inactive: -0.04; in assay [3], inactive: 0.003.
On to CASS4 (UniProt Q9NQ75), for which the log2 fold change in assay [1] was inactive: -0.061; in assay [2], inactive: 0.015; in assay [3], inactive: -0.008.
On to CCDC175 (UniProt P0C221), for which the figures for the log2 fold change in assay [1] and in assay [3] were inactive: 0.201 and inactive: -0.158, respectively.
Turning to CD40 (UniProt P25942), the log2 fold change in assay [3] is inactive: 0.199.
Regarding CCND3 (UniProt P30281), the log2 fold change in assay [4] is inactive: 0.043; in assay [5], inactive: 0.051; in assay [2], inactive: 0.036; in assay [3], inactive: -0.023.
As for CCNDBP1 (UniProt O95273), the log2 fold change in assay [4] was inactive: 0.029; in assay [5], inactive: 0.002; in assay [1], inactive: -0.203; in assay [2], inactive: -0.007; in assay [3] it was inactive: 0.073.
Regarding CCHCR1 isoform 2 (UniProt Q8TD31), the log2 fold change was inactive: 0.151 in assay [4], inactive: 0.179 in assay [5], inactive: 0.037 in assay [1] and inactive: -0.15 in assay [3].
CASC1 (UniProt Q6TDU7): the log2 fold change in assay [4] was inactive: -0.256; in assay [5] it was inactive: 0.037; in assay [3], inactive: 0.046.
With CCT6B isoform 3 (UniProt Q92526), the log2 fold change in assay [1] is inactive: 0.068; in assay [2], inactive: -0.319.
In the case of CD33 (UniProt P20138), the log2 fold change in assay [2] was inactive: -0.069; in assay [3], inactive: 0.038.
For CARD6 (UniProt Q9BX69), the log2 fold change in assay [1] is inactive: -0.03; in assay [2], inactive: 0.001.
In the case of CASP8AP2 (UniProt Q9UKL3), the results for the log2 fold change in assay [4], in assay [5] and in assay [3] were inactive: -0.048, inactive: 0.064 and inactive: 0.042, respectively.
For CCND2 (UniProt P30279), the log2 fold change in assay [4] was inactive: -0.114; in assay [5], inactive: 0.12; in assay [2] it was inactive: 0.066.
On to CCDC152 (UniProt Q4G0S7), for which the log2 fold change was inactive: -0.085 in assay [1] and inactive: -0.037 in assay [2].
For the target CD79B isoform 3 (UniProt P40259), the log2 fold change in assay [2] is inactive: 0.283.
On the same count and under the same terms, in the case of CASP10 isoform 2 (UniProt Q92851) it was inactive: 0.1.
On to CBX8 (UniProt Q9HC52), for which the log2 fold change in assay [1] is inactive: 0.009.
Turning to CD53 (UniProt P19397), the log2 fold change in assay [4] was inactive: 0.048; in assay [5] it was inactive: -0.032; in assay [1], inactive: -0.036; in assay [3], inactive: -0.078.
For the target CCDC71L (UniProt Q8N9Z2), the log2 fold change was inactive: -0.005 in assay [2] and inactive: -0.004 in assay [3].
For the target CARHSP1 (UniProt H3BNU9), the log2 fold change in assay [4] was inactive: -0.034; in assay [5], inactive: -0.224; in assay [3], inactive: 0.094.
As for CCDC8 (UniProt Q9H0W5), in assay [2], the log2 fold change is inactive: -0.003.
CCT6B (UniProt Q92526): the log2 fold change is inactive: 0.006 in assay [4], inactive: -0.165 in assay [5] and inactive: 0.018 in assay [3].
Regarding CBLL1 (UniProt Q75N03), the log2 fold change in assay [1] is inactive: 0.017; in assay [2] it was inactive: 0.01; in assay [3], inactive: -0.015.
Regarding CASP8 isoform 4 (UniProt Q14790), the log2 fold change is inactive: -0.385 in assay [4], inactive: -0.135 in assay [5] and inactive: 0.06 in assay [2].
As to CASP7 isoform 3 (UniProt P55210), the figures for the log2 fold change in assay [4], in assay [5] and in assay [2] were inactive: 0.035, inactive: -0.02 and inactive: -0.105, respectively.
Regarding CCND1 (UniProt P24385), the log2 fold change in assay [3] was inactive: -0.085.
In the case of CD68 (UniProt P34810), the log2 fold change in assay [3] is inactive: 0.069.
Consider CAV2 (UniProt P51636), for which the results for the log2 fold change in assay [2] and in assay [3] were inactive: -0.27 and inactive: -0.158, respectively.
For CBX3 (UniProt B8ZZ43), the log2 fold change in assay [3] was inactive: -0.079.
The same measure, in the same setting: the result for CD44 (UniProt P16070) reads inactive: 0.024.
Take CCDC136 isoform 4 (UniProt Q96JN2): the log2 fold change in assay [1] was inactive: 0.04; in assay [2], inactive: -0.062; in assay [3] it was inactive: 0.101.
Turning to CD80 (UniProt P33681), the log2 fold change in assay [1] was inactive: 0.032; in assay [2] it was inactive: 0.018; in assay [3] it was inactive: 0.048.
As for CCDC9, A0A2R8Y4Z8, the log2 fold change was inactive: -0.021 in assay [4], inactive: 0.072 in assay [5] and inactive: -0.174 in assay [2].
